The list shows a part of the results, in another mix than the full data. Single values of this set are uncertain.
The targets below were run with COC(=O)/C=C/c1ccccc1 [methyl cinnamate] (assay: log2 ratio of iodoacetamide-alkyne labeling of the cysteine site, DMSO over compound (competition); higher = stronger covalent engagement of the cysteine by the compound, active = 1 or more). Conditions: 500 µM; treatment time 1 h; system: HEK293T cell lysate.
Outline: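 After 1 h at ambient temperature with vehicle or electrophile (500 µM), HEK293T lysate (2 mg/mL) was labelled for 1 h with iodoacetamide alkyne and clicked to sCIP-TMT reagents. Pooled samples were trypsin-digested overnight at 37 °C, streptavidin-enriched, acid-eluted and analysed by Orbitrap Eclipse LC-MS/MS with FAIMS, then quantified in FragPipe over three replicates with duplicate channels. A cysteine's log2 competition ratio is its mean control-channel over mean compound-channel reporter intensity. Cysteines quantified in only one replicate were not included.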

Sequences of proteins named here, by UniProt entry; tags and fusion partners are left off. A change or cut given only in a name is not applied to a line headed by its entry.
UniProt Q6YN16: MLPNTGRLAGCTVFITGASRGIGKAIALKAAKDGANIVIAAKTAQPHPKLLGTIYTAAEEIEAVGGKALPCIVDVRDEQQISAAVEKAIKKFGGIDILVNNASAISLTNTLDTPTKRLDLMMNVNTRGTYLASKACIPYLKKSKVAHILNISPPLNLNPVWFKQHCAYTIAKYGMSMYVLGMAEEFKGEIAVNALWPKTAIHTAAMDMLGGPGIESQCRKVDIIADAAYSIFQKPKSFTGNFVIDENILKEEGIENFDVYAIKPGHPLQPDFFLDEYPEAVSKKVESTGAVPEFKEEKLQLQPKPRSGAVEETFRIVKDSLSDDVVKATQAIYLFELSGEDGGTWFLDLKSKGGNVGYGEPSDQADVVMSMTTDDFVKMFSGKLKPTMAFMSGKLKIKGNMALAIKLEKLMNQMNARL
UniProt Q5UIP0: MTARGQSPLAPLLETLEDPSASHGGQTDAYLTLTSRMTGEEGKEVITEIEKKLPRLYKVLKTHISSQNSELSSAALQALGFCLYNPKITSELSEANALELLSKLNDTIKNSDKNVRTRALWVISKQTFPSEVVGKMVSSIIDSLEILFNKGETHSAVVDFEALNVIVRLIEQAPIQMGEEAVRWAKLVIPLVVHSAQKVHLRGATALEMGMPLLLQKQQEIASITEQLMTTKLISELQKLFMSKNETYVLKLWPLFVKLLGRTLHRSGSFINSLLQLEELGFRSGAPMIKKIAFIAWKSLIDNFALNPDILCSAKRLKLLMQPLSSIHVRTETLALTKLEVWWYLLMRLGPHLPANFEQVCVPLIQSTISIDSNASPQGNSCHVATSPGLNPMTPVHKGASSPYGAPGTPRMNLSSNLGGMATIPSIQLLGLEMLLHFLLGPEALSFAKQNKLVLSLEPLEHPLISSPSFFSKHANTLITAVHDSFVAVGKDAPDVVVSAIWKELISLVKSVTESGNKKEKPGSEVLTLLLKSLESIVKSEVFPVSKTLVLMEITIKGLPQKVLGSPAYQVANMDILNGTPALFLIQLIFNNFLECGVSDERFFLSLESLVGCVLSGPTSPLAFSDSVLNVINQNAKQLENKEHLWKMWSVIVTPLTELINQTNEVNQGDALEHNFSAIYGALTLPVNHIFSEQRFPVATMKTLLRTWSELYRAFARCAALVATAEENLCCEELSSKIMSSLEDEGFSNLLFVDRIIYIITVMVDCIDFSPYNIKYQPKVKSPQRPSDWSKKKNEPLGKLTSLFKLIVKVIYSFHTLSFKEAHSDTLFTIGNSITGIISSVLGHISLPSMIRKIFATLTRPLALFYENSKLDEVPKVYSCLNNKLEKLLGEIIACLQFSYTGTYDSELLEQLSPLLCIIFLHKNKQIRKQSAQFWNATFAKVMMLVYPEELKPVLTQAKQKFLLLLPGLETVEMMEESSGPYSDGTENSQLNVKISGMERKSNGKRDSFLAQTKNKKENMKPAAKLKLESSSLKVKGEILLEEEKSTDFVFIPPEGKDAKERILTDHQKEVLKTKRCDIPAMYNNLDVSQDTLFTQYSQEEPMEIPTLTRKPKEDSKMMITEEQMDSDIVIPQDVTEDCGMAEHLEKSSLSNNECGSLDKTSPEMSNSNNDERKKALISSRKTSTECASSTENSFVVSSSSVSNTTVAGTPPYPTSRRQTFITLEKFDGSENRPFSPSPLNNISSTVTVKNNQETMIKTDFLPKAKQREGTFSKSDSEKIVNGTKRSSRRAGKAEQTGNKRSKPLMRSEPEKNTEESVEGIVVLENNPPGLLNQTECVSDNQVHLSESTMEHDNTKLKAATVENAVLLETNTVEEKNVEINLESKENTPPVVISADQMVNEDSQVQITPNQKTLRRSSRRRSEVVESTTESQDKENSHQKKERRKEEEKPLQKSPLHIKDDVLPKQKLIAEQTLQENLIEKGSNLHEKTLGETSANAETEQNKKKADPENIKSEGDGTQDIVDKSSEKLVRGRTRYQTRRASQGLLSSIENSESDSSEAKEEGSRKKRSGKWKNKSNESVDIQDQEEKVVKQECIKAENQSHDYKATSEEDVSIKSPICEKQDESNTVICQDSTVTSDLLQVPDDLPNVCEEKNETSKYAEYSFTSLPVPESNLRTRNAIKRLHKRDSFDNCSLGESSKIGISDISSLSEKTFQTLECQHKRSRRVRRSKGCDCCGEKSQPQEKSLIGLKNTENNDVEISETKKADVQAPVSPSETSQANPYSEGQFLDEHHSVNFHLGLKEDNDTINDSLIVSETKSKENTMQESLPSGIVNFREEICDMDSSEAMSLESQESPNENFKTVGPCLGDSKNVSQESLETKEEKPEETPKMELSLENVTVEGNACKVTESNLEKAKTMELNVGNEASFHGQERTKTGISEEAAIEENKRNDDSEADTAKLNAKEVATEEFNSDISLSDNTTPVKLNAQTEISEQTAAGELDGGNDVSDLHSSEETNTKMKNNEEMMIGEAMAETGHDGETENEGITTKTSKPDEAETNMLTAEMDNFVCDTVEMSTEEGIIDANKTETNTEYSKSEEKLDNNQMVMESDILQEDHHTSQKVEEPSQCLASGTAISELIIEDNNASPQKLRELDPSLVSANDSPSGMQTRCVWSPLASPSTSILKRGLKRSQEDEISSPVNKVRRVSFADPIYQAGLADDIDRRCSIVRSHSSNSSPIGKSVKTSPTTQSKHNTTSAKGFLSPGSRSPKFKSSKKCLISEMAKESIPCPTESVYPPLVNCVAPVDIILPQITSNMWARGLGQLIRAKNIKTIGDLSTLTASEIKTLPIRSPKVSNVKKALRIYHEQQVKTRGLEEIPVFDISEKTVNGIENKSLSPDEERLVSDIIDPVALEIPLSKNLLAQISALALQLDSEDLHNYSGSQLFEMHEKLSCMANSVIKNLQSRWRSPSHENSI
UniProt Q6ZSJ8: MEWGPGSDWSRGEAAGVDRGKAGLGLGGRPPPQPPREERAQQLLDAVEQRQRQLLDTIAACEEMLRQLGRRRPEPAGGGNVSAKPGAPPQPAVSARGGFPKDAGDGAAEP
UniProt Q5T160: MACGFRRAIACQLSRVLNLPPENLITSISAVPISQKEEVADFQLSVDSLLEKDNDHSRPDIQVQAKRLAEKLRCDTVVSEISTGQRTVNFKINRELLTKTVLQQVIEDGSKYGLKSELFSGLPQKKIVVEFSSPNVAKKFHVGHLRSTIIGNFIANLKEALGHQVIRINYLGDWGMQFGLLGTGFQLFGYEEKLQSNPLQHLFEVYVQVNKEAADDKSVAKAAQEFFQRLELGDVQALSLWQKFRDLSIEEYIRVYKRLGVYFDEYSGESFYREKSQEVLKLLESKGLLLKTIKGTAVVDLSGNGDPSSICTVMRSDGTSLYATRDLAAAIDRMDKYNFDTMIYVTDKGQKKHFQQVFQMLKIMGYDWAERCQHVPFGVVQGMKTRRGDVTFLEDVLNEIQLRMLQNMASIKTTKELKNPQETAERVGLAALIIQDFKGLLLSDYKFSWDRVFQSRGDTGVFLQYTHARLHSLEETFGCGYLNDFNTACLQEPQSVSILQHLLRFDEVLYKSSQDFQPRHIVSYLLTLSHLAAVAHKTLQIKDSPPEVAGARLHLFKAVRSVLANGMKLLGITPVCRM
UniProt Q6L8Q7: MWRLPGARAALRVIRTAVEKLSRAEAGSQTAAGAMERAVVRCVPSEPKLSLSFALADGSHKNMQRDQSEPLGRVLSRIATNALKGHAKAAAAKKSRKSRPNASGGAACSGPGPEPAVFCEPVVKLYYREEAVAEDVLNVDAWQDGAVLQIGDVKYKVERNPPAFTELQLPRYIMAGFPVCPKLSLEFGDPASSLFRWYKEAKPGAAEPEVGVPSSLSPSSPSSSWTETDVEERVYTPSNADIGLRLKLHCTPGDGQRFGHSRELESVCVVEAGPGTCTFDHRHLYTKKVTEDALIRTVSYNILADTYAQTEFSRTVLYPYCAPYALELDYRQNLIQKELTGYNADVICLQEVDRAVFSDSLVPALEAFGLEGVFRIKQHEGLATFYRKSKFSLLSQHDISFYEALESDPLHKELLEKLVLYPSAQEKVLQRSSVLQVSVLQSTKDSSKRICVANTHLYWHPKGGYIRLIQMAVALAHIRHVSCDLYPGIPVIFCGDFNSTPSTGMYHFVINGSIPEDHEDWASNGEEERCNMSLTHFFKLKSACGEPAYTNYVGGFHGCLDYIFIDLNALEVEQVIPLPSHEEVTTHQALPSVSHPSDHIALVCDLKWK
UniProt Q6PJT7: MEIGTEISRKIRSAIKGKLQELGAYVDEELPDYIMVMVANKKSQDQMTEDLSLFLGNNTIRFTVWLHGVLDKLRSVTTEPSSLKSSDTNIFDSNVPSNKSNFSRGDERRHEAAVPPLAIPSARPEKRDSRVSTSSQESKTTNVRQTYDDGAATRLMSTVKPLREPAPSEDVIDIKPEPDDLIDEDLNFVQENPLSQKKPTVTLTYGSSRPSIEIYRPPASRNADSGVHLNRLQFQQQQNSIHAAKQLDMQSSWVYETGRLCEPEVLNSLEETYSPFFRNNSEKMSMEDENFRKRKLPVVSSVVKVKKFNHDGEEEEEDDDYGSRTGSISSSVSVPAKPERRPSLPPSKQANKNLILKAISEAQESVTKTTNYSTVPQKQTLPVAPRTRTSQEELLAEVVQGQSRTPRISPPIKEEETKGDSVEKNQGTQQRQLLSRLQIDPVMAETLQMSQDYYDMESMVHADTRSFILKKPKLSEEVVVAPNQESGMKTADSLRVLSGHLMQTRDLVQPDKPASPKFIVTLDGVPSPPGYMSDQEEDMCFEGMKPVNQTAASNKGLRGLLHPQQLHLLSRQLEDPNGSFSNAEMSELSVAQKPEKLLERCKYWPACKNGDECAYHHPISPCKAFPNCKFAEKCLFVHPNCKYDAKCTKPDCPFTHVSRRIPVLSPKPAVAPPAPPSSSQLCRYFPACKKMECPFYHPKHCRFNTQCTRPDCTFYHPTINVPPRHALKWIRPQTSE
UniProt Q5QJE6: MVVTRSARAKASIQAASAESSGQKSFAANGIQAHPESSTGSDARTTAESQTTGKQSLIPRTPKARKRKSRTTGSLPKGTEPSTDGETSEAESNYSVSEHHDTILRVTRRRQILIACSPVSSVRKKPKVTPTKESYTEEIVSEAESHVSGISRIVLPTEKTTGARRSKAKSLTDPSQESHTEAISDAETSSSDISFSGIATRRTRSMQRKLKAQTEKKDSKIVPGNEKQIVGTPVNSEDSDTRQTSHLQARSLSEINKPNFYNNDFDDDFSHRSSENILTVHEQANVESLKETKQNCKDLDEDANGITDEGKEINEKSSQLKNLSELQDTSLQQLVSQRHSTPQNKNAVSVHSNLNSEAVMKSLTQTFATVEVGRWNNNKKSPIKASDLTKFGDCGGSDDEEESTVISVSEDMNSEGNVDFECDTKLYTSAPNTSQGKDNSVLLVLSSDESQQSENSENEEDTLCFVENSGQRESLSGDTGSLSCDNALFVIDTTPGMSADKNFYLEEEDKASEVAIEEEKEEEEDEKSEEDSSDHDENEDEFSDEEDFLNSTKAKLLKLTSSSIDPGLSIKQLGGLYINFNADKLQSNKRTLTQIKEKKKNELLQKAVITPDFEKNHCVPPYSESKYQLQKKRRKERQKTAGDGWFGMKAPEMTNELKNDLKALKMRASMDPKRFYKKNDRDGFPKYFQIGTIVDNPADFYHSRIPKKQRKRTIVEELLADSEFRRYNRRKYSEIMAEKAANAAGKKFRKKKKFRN
UniProt Q5VWQ0: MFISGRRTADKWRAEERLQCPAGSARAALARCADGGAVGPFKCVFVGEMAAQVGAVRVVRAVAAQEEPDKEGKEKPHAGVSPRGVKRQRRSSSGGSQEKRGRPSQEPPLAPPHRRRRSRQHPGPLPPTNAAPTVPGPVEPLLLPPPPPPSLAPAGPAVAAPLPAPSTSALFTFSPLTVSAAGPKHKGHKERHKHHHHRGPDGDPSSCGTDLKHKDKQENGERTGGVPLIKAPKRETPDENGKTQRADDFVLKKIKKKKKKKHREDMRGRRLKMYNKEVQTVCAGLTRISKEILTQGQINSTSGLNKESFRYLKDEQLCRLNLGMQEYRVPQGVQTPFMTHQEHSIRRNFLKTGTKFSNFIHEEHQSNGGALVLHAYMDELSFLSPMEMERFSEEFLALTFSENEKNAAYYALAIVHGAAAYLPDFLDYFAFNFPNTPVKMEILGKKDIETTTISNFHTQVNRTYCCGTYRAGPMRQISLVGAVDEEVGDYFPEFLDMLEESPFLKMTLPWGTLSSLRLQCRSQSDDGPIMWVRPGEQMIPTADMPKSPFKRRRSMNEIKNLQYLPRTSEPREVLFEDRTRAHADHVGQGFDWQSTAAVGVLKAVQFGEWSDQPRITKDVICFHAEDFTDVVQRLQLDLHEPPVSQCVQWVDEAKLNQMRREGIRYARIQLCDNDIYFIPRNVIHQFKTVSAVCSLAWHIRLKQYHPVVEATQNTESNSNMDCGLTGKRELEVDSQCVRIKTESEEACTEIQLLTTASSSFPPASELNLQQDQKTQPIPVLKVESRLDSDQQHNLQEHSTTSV

log2 ratio of iodoacetamide-alkyne labeling, inactive:
LARP1 C953 (UniProt Q6PKG0) 0.11
HSDL2 C71 (UniProt Q6YN16) 0.286
TET2 C332 (UniProt Q6N021) 0.368
MAP1S C440 (UniProt Q66K74) -0.0266
RIF1 C1187 (UniProt Q5UIP0) 0.151
DDI2 C361 (UniProt Q5TDH0) 0.107
NIPBL C661 (UniProt Q6KC79) 0.0603
CEP170 C212 (UniProt Q5SW79) 0.498
RNF20 C905 (UniProt Q5VTR2) 0.345
CNNM4 C736 (UniProt Q6P4Q7) 0.209
ACBD5 C170 (UniProt Q5T8D3) 0.136
RRP12 C102 (UniProt Q5JTH9) 0.435
UniProt Q5VSL9_C769 0.359
EDC4 C81 (UniProt Q6P2E9) 0.656
UniProt Q69YN4_C781 -0.0203
C1orf122 C61 (UniProt Q6ZSJ8) 0.0853
HP1BP3 C412 (UniProt Q5SSJ5) -0.0499
UniProt Q63HN8_C3609 0.0831
FKBP15 C1031 (UniProt Q5T1M5) 0.0776
TBCEL C121 (UniProt Q5QJ74) -0.108
RARS2 C74 (UniProt Q5T160) 0.257
UniProt Q5W5X9_C428 0.264
NOM1 C65 (UniProt Q5C9Z4) 0.314
FIP1L1 C216 (UniProt Q6UN15) 0.096
UniProt Q69YQ0_C79 0.469
ZMYM4 C1499 (UniProt Q5VZL5) 0.188
PDE12 C108 (UniProt Q6L8Q7) 0.382
ZC3H14 C622 (UniProt Q6PJT7) -0.185
ATAD2 C631 (UniProt Q6PL18) 0.227
DNTTIP2 C618 (UniProt Q5QJE6) 0.175
METTL2B C171 (UniProt Q6P1Q9) 0.345
RIF1 C2169 (UniProt Q5UIP0) 0.141
ANKRD54 C23 (UniProt Q6NXT1) 0.306
UniProt Q5VWQ0_C671 0.0219
UniProt Q6ZS17_C1137 0.107
UniProt Q6S8J3_C965 0.0284
CEP78 C653 (UniProt Q5JTW2) 0.254

Retrieved one by one from the entries so far, 2 records:
log2 ratio of iodoacetamide-alkyne labeling, inactive:
RIF1 C2169 (UniProt Q5UIP0) 0.141
MAP1S C440 (UniProt Q66K74) -0.0266
